Laboratory results published in patent US20260085322.
The exact form of at least one protein or probe is not confirmed. Where cells or extracts were used, other partners may take part. Protein sequences can lack the tags named with them.

Biological target: T1, RBFOX2 (Mus musculus) (UniProt Q8BP71)
T1 sequence (looked up, limits assumed): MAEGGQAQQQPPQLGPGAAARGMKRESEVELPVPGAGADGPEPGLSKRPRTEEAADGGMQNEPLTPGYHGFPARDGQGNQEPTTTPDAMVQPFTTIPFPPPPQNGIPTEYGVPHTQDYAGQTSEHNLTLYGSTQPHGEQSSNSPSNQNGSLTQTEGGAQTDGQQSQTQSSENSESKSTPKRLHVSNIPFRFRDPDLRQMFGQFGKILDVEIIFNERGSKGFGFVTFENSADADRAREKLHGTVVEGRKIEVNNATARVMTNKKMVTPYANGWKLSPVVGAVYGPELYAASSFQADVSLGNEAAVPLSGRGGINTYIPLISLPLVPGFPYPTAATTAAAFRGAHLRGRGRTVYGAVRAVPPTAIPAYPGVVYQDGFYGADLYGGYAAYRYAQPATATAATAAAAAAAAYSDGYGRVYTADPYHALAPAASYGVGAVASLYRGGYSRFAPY
Assay: binding assay
Conditions: eiCLIP; motif enriched at crosslink sites; protein in cells

Sequence: UGCAUG [RBFOX2 consensus motif (U)GCAUG]
- binding result: binds
